Test results published in article PMC12428715.

Sequences of proteins named here, by UniProt entry; tags and fusion partners are left off. Residues count along the entry.
UniProt P05067, residues 672-713: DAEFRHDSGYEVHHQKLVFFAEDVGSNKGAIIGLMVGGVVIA
UniProt Q9BYJ9: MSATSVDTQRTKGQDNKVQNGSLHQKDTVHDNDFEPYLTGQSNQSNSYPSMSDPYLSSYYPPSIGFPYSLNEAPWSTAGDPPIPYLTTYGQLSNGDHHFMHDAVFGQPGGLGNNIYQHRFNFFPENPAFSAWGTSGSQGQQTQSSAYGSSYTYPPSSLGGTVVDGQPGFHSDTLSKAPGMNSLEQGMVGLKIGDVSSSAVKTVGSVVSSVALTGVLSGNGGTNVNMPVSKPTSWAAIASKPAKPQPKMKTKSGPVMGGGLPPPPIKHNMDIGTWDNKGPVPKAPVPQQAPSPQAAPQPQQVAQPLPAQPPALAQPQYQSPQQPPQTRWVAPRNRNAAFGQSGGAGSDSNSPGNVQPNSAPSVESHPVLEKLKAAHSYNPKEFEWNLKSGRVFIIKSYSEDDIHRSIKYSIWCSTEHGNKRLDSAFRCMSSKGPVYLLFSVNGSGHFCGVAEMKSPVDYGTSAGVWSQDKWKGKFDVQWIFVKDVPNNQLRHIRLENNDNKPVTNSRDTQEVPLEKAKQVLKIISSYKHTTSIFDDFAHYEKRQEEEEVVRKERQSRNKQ
UniProt Q7Z739: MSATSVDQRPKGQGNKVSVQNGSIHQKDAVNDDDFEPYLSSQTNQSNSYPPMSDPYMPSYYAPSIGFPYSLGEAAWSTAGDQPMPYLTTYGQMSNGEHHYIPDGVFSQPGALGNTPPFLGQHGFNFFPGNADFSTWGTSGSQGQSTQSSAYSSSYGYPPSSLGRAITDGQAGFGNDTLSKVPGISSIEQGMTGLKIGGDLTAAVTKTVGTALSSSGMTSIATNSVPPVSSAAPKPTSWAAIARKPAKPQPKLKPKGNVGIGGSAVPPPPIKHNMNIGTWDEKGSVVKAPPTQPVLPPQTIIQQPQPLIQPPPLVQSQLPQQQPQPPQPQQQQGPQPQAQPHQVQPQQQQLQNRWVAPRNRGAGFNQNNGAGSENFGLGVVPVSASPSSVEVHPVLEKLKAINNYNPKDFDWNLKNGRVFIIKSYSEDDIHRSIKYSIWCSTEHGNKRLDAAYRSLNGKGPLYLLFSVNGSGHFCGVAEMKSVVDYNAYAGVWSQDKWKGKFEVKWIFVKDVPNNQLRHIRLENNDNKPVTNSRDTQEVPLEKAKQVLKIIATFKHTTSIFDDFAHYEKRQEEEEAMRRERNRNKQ

Molecular target: amyloid-β 1–42 fused to GFP (UniProt P05067)
Test: affinity purification with mass spectrometry; GFP-Trap Magnetic Agarose pull-down of Aβ-EGFP (EGFP as background) from lysates of HeLa WT or TRMT61A KD cells 24 h after electroporation; 1 h at 4 °C; label-free quantification, five biological replicates

YTHDF1 (from UniProt Q9BYJ9 1-559)
binding: no binding

YTHDF3 (from UniProt Q7Z739 1-585)
binding: no binding

Results are given in words; binding and its absence hold for the method and conditions named. In cells and extracts the contact can be indirect. A yes stands for co-enrichment or nearness to the bait. Other partners may have been found. A no says only that the protein was not detected with the bait.
